For at least one compound, name, drawing or mass did not settle the structure.
Tested on: nephron progenitor cells derived from human induced pluripotent stem cells
Experiment: Induced differentiation of recovered nephron progenitor cells into podocytes, podocyte marker genes measured by qPCR
Format: cell-based
Conditions: 100 nM retinoic acid replacing vitamin A in step S5, with 100 nM vitamin D3, 20% (v/v) fetal bovine serum and Glutamax-1 in DMEM/F12, 8 days

SMILES: CC1=C(/C=C/C(C)=C/C=C/C(C)=C/C(=O)O)C(C)(C)CCC1 [retinoic acid]
- induced differentiation effect on the cells (differentiation into podocytes): failed to fully differentiate into podocytes
- expressions of podocyte marker genes Nephrosis2 and Nephrin, cells obtained in step S5 vs human induced pluripotent stem cells (qPCR) (P >0.05): no significant difference

From patent publication US20240425819A1, “METHOD FOR PREPARING RENAL PODOCYTES BY DISCONTINUOUS DIFFERENTIATION” (GUANGZHOU ASIA KIDNEY REBUILDING MEDICAL TECHNOLOGY LTD., priority 2022, published 2024)
